Results are given in words; binding and its absence hold for the method and conditions named. Binding seen in cells or lysates may run through a third protein. Some results given as binding are weak or reduced against the parent protein; the word gives no strength.
Target: ST2 (stimulation 2, receptor of IL-33) (human (endogenous in neutrophils of RA patients)) (UniProt Q01638)
Assay: co-IP; lysates of RA neutrophils stimulated with IL-33 (100 ng/mL) or PBS for 1 h; anti-ST2 capture antibody overnight at 4 °C, Protein A/G magnetic beads; western blotting

By UniProt entry, the sequences of proteins in these tests, tags left out. Residues count along the entry.
UniProt Q01638, residues 19-556: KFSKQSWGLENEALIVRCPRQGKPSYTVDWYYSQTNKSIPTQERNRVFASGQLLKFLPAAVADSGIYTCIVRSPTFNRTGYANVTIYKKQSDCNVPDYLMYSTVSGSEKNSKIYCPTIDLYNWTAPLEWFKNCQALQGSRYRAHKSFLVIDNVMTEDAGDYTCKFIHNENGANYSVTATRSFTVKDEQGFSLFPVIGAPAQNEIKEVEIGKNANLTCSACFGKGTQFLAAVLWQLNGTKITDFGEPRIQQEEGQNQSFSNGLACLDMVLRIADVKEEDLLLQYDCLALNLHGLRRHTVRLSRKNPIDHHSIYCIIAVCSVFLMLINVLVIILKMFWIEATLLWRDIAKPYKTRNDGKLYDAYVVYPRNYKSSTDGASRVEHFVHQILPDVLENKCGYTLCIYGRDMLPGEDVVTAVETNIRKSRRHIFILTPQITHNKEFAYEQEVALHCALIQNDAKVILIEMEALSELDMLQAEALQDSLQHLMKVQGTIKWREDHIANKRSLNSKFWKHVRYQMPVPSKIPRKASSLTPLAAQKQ
UniProt Q99836: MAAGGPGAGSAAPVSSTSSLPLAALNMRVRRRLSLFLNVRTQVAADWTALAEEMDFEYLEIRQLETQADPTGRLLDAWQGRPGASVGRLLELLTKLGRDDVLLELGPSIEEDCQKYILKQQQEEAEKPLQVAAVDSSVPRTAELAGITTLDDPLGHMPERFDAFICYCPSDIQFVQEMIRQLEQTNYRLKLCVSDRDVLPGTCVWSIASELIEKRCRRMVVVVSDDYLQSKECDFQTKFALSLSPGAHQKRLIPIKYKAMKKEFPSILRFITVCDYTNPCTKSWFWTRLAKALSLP

Substance: MyD88 (from UniProt Q99836 1-296)
- binding: binds

Reference: article PMC11671579
